# Experimental data: PubChem BioAssay AID602196 (INSERM, 2012)
# Screen: 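Knock-downs that protect lung cancer cells from cisplatin or sensitise them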
# System: human A549 lung cancer cells
# Reagent: siRNA pair against human genes
# Duration: 48 h transfection before cisplatin; time from cisplatin to read-out not stated
# Challenge: cisplatin at a dose killing half of control-siRNA cells; exact dose and duration not given
# Measurement: 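Shift in cisplatin death relative to control siRNA, from -50 (all cells die) to +50 (no cells die); siRNAs harmful on their own scored 0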
# Reading the numbers: two-siRNA summed score (-2 to +2): higher = both siRNAs protect from cisplatin killing; -2 means both sensitise; mean protection from cisplatin (shift in death) and protection from cisplatin (shift in death), siRNA C and protection from cisplatin (shift in death), siRNA D: higher = protection from cisplatin killing
# Rule for the call: 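Each siRNA scores 0 if harmful alone by LDH or WST-1, otherwise +1 if it reduces and -1 if it increases cisplatin killing; a gene is active when both siRNAs agree (sum +2 or -2)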
# Calls: active = both siRNAs shift cisplatin killing the same way; inactive = no consistent shift, or siRNA harmful alone
# In all, the deposit lists about 23,000 reagents; this is a part drawn at random. Of all reagents, 455 (2%) got an active call. 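Active includes both protection and sensitisation; some change values fall well beyond the stated -50 to +50 range.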 The record does not give: the amount of reagent.
target gene,two-siRNA summed score (-2 to +2),mean protection from cisplatin (shift in death) (%),"protection from cisplatin (shift in death), siRNA C (%)","protection from cisplatin (shift in death), siRNA D (%)",Outcome
WFDC10B,-1,-0.7,5.4,-6.8,inactive
MAPK7,1,14.7,6.7,22.7,inactive
GPRC5B,1,8.4,-6,22.8,inactive
RPL37,-1,-11,2,-24,inactive
DNAAF2,0,6.8,3.5,10.2,inactive
GLB1L2,1,15.1,11.8,18.3,inactive
SUMO1P3,0,1.6,8.6,-5.5,inactive
COL11A2,0,-3.9,-11,3.3,inactive
SLC5A1,0,3.2,3.7,2.8,inactive
AP2S1,0,-3.9,1.3,-9.2,inactive
SLC10A7,0,8.1,3.6,12.7,inactive
GZMB,-1,-5.6,-20.4,9.1,inactive
C10orf88,0,5,1.4,8.6,inactive
C10orf120,0,3.3,9,-2.5,inactive
LOC284120,0,3,0.8,5.2,inactive
TUBB2B,0,12.3,13,11.7,inactive
FLJ32682,0,7.6,3,12.3,inactive
CHST4,0,6.3,-2.3,15,inactive
ALKBH6,0,3.7,-4.2,11.6,inactive
HCAR3,0,2,-8.6,12.6,inactive
LOC441793,0,1.3,-1.9,4.6,inactive
KRTAP20-2,0,2.1,-5.2,9.5,inactive
LOC148766,0,3.8,4,3.7,inactive

Next part (4 carried over from the part before).
target gene,two-siRNA summed score (-2 to +2),mean protection from cisplatin (shift in death) (%),"protection from cisplatin (shift in death), siRNA C (%)","protection from cisplatin (shift in death), siRNA D (%)",Outcome
HCAR3,0,2,-8.6,12.6,inactive
LOC441793,0,1.3,-1.9,4.6,inactive
KRTAP20-2,0,2.1,-5.2,9.5,inactive
LOC148766,0,3.8,4,3.7,inactive
SERPINA1,0,-2,3.6,-7.5,inactive
TRAF1,-1,-2,6.3,-10.4,inactive
CD300LF,1,8.8,25.8,-8.2,inactive
GKN2,0,-1.9,1.9,-5.8,inactive
PSMB7,0,20.1,18.3,21.9,inactive
B3GAT3,0,-7.3,-9.8,-4.7,inactive
TRIM58,0,1.5,1,2,inactive
CBFB,0,-2,-4.5,0.6,inactive
REM1,0,-2,-2.2,-1.9,inactive
ASB2,0,-16,-18.6,-13.4,inactive
LOC388144,0,15.5,18.8,12.2,inactive
LOC440426,1,15.1,11.1,19.2,inactive
TUBA3E,1,17.2,16.1,18.3,inactive
ERICH6,0,2.3,-1.6,6.1,inactive
DNAH6,0,-3.3,-3.3,-3.3,inactive
SDK2,0,-3.5,-5.1,-1.9,inactive
